Our source for the binding values is article PMC8339327.

Chains of the proteins cited; added tags and fusions are not shown.
UniProt P06493: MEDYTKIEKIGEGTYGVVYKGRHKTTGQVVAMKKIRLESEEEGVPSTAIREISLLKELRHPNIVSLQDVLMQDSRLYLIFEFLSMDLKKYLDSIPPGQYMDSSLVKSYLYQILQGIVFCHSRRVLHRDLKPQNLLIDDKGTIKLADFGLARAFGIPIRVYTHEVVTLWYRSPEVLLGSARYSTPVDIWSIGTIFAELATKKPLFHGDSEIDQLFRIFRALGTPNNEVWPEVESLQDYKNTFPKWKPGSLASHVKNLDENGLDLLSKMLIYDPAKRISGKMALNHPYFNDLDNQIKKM
UniProt P06748: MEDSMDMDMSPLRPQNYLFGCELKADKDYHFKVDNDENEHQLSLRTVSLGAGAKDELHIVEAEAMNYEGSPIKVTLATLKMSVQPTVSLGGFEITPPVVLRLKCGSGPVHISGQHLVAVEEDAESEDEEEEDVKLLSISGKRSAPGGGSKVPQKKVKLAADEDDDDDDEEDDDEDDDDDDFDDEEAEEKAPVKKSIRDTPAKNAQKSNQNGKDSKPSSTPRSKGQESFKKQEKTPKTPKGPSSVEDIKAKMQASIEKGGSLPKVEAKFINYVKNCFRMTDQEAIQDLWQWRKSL

Assay [1] addresses Cdk1 (human (endogenous in AGS)) (UniProt P06493). The assay is described as follows: co-IP; AGS cell lysates, RASSF10 against cyclin-B, Cdk1 or NPM; also reverse co-IP; Western blot.
Assay [2] deals with Nucleophosmin (NPM) (human (AGS cells)) (UniProt P06748). The assay is described as above.
The target in assay [3] is Cdk1 (human (endogenous in AGS)) (UniProt P06493). Description: co-IP; lysates of AGS cells with ectopic RASSF10 expression; Cdk1 precipitated, blots for cyclin-B and GADD45a.

These are yes or no findings as the source states them, for the method shown. In cells and extracts the contact can be indirect. Some entries that bind do so weakly or less than the wild type.

B1: RASSF10 (protein, UniProt A6NK89 1-507)
chain: MDPSEKKISVWICQEEKLVSGLSRRTTCSDVVRVLLEDGCRRRRRQRRSRRLGSAGDPHGPGELPEPPNEDDEDDDEALPQGMLCGPPQCYCIVEKWRGFERILPNKTRILRLWAAWGEEQENVRFVLVRSEASLPNAGPRSAEARVVLSRERPCPARGAPARPSLAMTQEKQRRVVRKAFRKLAKLNRRRQQQTPSSCSSTSSSTASSCSSSPRTHESASVERMETLVHLVLSQDHTIRQQVQRLHELDREIDHYEAKVHLDRMRRHGVNYVQDTYLVGAGIELDGSRPGEEPEEVAAEAEEAAAAPPLAGEAQAAALEELARRCDDLLRLQEQRVQQEELLERLSAEIQEELNQRWMRRRQEELAAREEPLEPDGGPDGELLLEQERVRTQLSTSLYIGLRLNTDLEAVKSDLDYSQQQWDSKKRELQGLLQTLHTLELTVAPDGAPGSGSPSREPGPQACADMWVDQARGLAKSGPGNDEDSDTGLSSMHSQDSDSLPMCESLV
Turning to B1, the binding result in assay [1] and in assay [2] was “no binding” each time.

B2: growth arrest and DNA damage-inducible alpha (GADD45a) (protein, UniProt P24522 1-165)
chain: MTLEEFSAGEQKTERMDKVGDALEEVLSKALSQRTITVGVYEAAKLLNVDPDNVVLCLLAADEDDDRDVALQIHFTLIQAFCCENDINILRVSNPGRLAELLLLETDAGPAASEGAEQPPDLHCVLVTNPHSSQWKDPALSQLICFCRESRYMDQWVPVINLPER
For the molecule B2, in assay [3], the binding entry was “binds”.
